Data as given in the supplement of paper PMC7666118.
The list shows a part of the results.

By UniProt entry, the sequences of proteins in these tests, tags left out. Where a name states a change or a piece, a line headed by the entry shows the natural chain unless it says otherwise.
UniProt Q15061: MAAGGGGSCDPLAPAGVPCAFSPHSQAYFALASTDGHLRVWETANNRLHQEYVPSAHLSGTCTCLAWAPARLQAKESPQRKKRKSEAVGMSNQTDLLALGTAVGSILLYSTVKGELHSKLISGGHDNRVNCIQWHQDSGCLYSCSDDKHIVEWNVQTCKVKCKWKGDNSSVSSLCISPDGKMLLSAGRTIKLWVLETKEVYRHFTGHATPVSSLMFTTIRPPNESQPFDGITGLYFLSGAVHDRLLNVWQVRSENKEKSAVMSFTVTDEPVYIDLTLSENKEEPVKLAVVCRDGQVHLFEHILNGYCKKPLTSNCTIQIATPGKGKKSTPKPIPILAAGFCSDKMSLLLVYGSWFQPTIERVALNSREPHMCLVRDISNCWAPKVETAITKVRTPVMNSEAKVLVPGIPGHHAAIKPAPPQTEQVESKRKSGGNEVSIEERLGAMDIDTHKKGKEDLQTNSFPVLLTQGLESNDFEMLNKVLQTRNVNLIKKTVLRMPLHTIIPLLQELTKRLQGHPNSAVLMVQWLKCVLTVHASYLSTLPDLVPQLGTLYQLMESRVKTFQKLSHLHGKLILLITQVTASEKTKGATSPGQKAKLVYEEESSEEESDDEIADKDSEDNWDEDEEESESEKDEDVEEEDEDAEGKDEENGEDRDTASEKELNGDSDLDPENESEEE
UniProt Q8TBZ3: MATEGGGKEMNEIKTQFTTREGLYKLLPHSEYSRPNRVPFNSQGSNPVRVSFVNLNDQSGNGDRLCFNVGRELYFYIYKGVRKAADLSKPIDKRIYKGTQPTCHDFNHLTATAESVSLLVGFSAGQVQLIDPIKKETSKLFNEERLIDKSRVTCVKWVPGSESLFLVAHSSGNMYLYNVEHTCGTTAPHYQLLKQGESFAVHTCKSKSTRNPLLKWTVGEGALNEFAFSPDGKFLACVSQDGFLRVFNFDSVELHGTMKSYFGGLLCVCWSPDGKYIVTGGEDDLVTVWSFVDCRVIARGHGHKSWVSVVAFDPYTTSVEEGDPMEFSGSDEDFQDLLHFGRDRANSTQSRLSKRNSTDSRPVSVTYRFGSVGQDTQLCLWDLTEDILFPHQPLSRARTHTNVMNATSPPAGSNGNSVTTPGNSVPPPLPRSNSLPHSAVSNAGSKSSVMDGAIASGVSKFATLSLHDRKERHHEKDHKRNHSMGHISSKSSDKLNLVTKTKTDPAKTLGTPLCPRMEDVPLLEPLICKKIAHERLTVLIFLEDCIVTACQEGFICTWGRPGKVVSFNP
UniProt P52747: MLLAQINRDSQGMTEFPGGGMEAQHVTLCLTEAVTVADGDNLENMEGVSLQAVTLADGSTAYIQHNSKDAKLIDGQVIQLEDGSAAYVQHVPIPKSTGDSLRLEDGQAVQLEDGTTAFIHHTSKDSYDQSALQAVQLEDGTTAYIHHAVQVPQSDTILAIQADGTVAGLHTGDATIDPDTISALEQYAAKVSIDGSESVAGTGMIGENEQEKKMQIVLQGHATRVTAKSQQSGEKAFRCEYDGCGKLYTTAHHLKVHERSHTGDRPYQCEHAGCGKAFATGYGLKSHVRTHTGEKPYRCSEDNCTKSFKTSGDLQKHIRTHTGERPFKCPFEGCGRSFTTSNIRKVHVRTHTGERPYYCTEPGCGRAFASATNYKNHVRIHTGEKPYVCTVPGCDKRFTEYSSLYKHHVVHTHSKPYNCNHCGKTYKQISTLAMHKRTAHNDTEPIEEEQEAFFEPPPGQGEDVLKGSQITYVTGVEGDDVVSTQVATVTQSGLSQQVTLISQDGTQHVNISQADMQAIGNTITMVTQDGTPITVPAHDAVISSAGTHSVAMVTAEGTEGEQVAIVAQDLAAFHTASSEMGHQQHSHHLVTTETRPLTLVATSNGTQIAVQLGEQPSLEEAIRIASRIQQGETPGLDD
UniProt O15015: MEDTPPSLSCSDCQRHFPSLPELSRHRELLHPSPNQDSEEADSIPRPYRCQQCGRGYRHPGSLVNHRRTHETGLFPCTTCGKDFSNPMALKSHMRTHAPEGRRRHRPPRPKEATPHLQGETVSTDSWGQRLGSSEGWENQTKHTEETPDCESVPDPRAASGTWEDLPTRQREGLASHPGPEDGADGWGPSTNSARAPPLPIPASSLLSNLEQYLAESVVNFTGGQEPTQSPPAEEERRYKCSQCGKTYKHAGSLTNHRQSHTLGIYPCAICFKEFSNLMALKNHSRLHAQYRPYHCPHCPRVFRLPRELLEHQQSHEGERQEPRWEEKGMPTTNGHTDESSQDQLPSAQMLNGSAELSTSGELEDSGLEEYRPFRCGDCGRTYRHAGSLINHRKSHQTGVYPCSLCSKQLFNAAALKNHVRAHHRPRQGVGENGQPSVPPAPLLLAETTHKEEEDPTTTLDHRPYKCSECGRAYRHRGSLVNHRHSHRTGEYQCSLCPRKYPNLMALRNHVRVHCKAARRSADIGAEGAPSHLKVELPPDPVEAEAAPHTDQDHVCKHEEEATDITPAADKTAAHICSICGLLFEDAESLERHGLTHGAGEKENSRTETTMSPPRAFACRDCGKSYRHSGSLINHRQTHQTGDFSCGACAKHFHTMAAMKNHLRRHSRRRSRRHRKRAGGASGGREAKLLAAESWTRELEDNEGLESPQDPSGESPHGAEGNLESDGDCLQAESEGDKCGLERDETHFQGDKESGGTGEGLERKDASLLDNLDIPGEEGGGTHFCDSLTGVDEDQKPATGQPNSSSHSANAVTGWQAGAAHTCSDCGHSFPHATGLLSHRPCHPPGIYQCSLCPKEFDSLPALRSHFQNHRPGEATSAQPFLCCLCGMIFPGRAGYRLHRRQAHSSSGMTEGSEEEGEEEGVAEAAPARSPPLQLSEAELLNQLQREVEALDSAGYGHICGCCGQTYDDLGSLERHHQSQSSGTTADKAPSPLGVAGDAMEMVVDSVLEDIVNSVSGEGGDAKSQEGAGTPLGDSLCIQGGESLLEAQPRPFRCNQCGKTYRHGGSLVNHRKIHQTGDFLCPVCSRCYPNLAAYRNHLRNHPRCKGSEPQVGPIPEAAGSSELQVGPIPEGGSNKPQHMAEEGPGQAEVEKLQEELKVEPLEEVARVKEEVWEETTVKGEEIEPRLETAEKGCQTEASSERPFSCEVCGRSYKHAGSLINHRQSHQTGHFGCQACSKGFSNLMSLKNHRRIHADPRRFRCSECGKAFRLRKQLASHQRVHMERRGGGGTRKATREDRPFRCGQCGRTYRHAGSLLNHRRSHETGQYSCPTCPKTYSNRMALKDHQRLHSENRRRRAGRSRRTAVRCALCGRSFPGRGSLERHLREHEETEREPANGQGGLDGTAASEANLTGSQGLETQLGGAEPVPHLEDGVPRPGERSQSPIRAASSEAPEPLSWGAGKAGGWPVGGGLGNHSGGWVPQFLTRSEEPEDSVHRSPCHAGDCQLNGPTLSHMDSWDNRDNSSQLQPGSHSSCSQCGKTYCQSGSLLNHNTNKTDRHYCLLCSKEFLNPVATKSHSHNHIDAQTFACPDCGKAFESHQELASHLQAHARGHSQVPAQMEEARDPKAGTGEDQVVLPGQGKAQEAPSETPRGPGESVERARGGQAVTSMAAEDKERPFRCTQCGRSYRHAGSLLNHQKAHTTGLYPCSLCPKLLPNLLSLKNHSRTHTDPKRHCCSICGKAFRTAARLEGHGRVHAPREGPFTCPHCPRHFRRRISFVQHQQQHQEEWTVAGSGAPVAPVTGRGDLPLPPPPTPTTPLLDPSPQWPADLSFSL
UniProt Q96JP5: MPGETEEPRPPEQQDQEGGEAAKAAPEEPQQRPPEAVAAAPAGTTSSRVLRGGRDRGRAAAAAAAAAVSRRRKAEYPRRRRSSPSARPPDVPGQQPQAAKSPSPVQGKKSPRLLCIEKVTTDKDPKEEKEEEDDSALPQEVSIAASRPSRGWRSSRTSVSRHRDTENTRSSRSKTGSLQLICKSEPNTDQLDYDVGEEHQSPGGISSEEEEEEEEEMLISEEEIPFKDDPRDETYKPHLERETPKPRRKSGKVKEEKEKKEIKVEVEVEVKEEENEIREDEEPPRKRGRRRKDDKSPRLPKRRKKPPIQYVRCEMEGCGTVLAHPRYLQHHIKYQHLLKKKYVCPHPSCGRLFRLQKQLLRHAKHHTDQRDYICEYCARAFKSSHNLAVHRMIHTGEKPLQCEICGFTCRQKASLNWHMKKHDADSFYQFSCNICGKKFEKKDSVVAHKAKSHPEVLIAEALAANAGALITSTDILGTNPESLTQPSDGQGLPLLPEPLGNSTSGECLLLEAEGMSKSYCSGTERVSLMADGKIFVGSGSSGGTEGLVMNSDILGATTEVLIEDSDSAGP
UniProt Q96MX3: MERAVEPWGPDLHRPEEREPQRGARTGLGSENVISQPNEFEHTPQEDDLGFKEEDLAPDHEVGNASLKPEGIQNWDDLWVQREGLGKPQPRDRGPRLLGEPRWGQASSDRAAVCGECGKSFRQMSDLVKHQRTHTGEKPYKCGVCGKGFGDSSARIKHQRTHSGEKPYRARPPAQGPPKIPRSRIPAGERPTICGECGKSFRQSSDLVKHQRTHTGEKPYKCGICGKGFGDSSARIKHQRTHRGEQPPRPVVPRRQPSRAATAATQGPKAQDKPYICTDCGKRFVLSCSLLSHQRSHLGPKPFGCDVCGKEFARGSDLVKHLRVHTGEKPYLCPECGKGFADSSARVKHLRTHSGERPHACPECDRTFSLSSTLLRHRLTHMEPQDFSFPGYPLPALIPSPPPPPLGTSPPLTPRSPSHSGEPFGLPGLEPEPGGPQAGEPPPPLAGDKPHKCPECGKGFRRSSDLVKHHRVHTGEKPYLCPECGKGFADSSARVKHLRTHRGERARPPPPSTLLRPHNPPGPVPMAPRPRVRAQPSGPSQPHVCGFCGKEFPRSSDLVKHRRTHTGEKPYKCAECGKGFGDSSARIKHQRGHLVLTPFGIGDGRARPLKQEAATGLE
UniProt Q04917: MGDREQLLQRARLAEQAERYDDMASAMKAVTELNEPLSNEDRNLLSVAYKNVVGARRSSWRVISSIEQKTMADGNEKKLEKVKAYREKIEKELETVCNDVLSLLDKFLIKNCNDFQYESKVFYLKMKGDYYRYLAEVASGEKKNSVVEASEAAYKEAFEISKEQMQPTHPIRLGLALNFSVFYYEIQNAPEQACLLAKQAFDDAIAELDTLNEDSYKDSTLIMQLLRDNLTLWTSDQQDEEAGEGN
UniProt Q8IWA0: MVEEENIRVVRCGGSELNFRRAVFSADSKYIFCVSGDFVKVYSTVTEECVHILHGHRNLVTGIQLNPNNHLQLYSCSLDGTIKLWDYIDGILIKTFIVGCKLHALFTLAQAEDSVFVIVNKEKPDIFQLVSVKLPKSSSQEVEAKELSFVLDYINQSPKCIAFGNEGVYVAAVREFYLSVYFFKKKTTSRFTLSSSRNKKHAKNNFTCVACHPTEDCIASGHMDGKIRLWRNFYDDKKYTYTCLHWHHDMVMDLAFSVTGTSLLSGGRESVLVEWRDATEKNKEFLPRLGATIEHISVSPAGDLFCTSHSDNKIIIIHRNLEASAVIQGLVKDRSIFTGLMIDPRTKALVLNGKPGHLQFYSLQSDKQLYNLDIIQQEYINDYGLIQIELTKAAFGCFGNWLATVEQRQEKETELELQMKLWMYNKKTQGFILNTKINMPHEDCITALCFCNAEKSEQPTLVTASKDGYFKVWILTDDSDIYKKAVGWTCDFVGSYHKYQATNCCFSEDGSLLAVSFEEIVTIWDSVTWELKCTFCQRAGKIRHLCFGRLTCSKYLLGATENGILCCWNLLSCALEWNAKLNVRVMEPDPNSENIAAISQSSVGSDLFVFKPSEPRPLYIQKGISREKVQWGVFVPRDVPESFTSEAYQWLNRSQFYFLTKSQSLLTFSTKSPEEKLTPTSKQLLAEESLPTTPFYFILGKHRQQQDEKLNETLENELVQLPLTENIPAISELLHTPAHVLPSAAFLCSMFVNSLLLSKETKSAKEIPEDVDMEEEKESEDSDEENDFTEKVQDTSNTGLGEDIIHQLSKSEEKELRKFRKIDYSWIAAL

compound: COc1ccc(Cn2ccc3cc(C)c(C(=O)NO)cc32)cc1; test: dose-dependent thermal stabilisation call (2D-TPP, DLPTP, 10% FDR) (binary (1 = stabilised)); higher = stabilised by the compound; conditions: system: HL-60 intact cells; concentration range 0.04-10 µM
Description: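 2D thermal proteome profiling in intact HL-60 cells treated with BRD-3811 (0, 0.04, 0.29, 2, 10 uM) for 90 min at 37 C, then heated 3 min at one of 12 temperatures (42-63.9 C). Soluble protein was quantified by TMT10 MS. The value is the DLPTP call of the paper: dose-dependent thermal stabilisation over all temperatures at 10% FDR (F-test of a dose-response against a flat model); one experiment, one call per tested protein.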

Target	dose-dependent thermal stabilisation call
WDR43 (UniProt Q15061)	inactive: 0
WDR20 (UniProt Q8TBZ3)	inactive: 0
ZNF143 (UniProt P52747)	inactive: 0
ZNF646 (UniProt O15015)	inactive: 0
ZFP91 (UniProt Q96JP5)	inactive: 0
ZNF48 (UniProt Q96MX3)	inactive: 0
ZAK (UniProt Q9NYL2)	inactive: 0
YWHAH (UniProt Q04917)	inactive: 0
WDR75 (UniProt Q8IWA0)	inactive: 0

A different layout for some results above:
Target,dose-dependent thermal stabilisation call
ZNF48 (UniProt Q96MX3),inactive: 0
ZAK (UniProt Q9NYL2),inactive: 0
